Test results as given in patent US10857167B2, “Use of oligosaccharide compositions to enhance weight gain” (Children's Hospital Medical Center, priority 2015, dated 2020).
Further values from the same series stand in other lists.

Test system: distal small bowel gene expression
Test: RNA sequencing / transcriptional analysis of small bowel 56 days after ICR (2′-FL signature response)
Assay type: in vivo, mouse
Excerpt: Luminal small bowel contents were expressed into AllProtect Tissue Reagent (Qiagen Inc, CA). Bacterial DNA was extracted using the AllPrep DNA/RNA Mini Kit (Qiagen Inc, CA), according to kit instructions and prior to sequencing (described below). Small bowel tissue samples for RNA were placed into RNA Later (Life Technologies, NY). RNA extraction was accomplished following Qiagen RNeasy Plus Kit instruction (Qiagen Inc, CA). All nucleic acid samples were then stored at -80 Celsius until sequenced (described below). Transcriptional analysis was carried out on resected and harvested small bowel samples obtained from operated mice taken to 8 weeks. Murine RNA sequencing libraries were prepared from approximately 1.5 μg RNA using the TruSeq RNA Sample Preparation Kit (Illumina, Calif.) and sequenced using the HiSeq 2000 Sequencing System (Illumina, Calif.) with single-end 50 bp reads. Following removal of primers and barcodes, sequences were aligned to the mm10 genome using reference annotations from UCSC (Rosenbloom et al. (2015) Nucleic acids research 43: […]-681) (n=36,186 entities). Aligned reads were quantified and used to compute reads per kilobase per million mapped reads (RPKM); raw counts were then normalized using the DESeq algorithm and each harvested sample was baselined to its own resected sample. A filter was applied to the data, requiring at least three reads in all samples of at least one of the four experimental conditions (n=14,489 entities). The data discussed in this publication have been deposited in NCBI's Gene Expression Omnibus and are accessible through NCBI Gene Expression Omnibus (GEO) Series accession number GSE72590. Edgar et al. (2002) Nucleic acids research 30: 207-210. In order to characterize the impact of 2'-FL supplementation while accounting for the effect of ileoecal resection, a t-test was applied between resected and harvested samples within control and experimental animals. Significance was set at a p-value of ≤0.05 and a fold change of 3, which generated 2,576 differentially regulated entities across two comparisons. Gene set unions and intersections of the control and experimental gene sets were identified through Venn diagrams. From the master list, the gene list specific to animals supplemented with 2'-FL were removed in order to identify genes differentially regulated only by ICR (n=546 entities); this gene set characterizes the adaptive response. Further, the 2'-FL response (n=2,030 entities) was identified by removing the adaptive response signature described above from the master list, leaving only genes regulated by 2'-FL supplementation after ICR which were not found in the non-supplemented adaptive response. Heatmaps were generated using hierarchical clustering with the Pearson's Centered distance metric and the average linkage rule; both entities and samples were clustered. All genomic analyses described above were performed in Strand NGS (Strand Life Sciences, CA). Gene list functional enrichment was initially discovered using ToppFun, a member of the ToppGene Suite. Chen et al. (2009) Nucleic acids research 37: […]-311. No statistical correction was selected. Gene lists were further analyzed using ClueGO, a plugin for Cytoscape designed to decipher functionally grouped gene ontology and pathway annotation networks. Bindea et al. (2009) Bioinformatics 25: 1091-1093. At the time of data analysis, the annotation files were updated from sources to Jan. 1, 2015. “GO Term Fusion” was enabled to manage ontologic term redundancy and network specificity was set to medium. Results were restricted to pathways with p≤0.05 using Benjamini-Hochberg correction and Kappa scoring was set to 0.4. Biocyc annotations were assigned a rectangle, gene ontology biologic processes were assigned an ellipse, and […] annotations were assigned a diamond shape. No meaning was assigned to size or color. […]

C[C@@H]1O[C@@H](O[C@H]2[C@H](O[C@H]3[C@H](O)[C@@H](O)C(O)O[C@@H]3CO)O[C@H](CO)[C@H](O)[C@@H]2O)[C@@H](O)[C@H](O)[C@@H]1O (stereo partly shown) [2′-FL, 2′-fucosyllactose]
Fold Change (Pre- to Post-op) (LOC100503676): 3.792 | Fold Change (Pre- to Post-op) (LOC100505179): 3.126 | Fold Change (Pre- to Post-op) (LOC101055731): 4.557 | Fold Change (Pre- to Post-op) (Lage3): 3.426 | Fold Change (Pre- to Post-op) (Lamtor1): 3.093 | Fold Change (Pre- to Post-op) (Lamtor5): 3.493 | Fold Change (Pre- to Post-op) (Leap2): 6.03 | Fold Change (Pre- to Post-op) (Lekr1): 3.078 | Fold Change (Pre- to Post-op) (Lrp2bp): 4.67 | Fold Change (Pre- to Post-op) (Lrrc48): 4.634 | Fold Change (Pre- to Post-op) (Lrrc51): 3.949 | Fold Change (Pre- to Post-op) (Lsm1): 3.415 | Fold Change (Pre- to Post-op) (Lsm3): 3.39 | Fold Change (Pre- to Post-op) (Lsm4): 3.12 | Fold Change (Pre- to Post-op) (Lsm5): 3.069 | Fold Change (Pre- to Post-op) (Lsm7): 4.528 | Fold Change (Pre- to Post-op) (Lsmd1): 4.081 | Fold Change (Pre- to Post-op) (Ly6g6f): 3.186 | Fold Change (Pre- to Post-op) (Ly6g6d): 7.662 | Fold Change (Pre- to Post-op) (Lypla1): 3.048 | Fold Change (Pre- to Post-op) (Lyrm2): 3.343 | Fold Change (Pre- to Post-op) (Lyrm5): 3.146 | Fold Change (Pre- to Post-op) (Mal2): 3.012 | Fold Change (Pre- to Post-op) (Map2k3os): 3.902 | Fold Change (Pre- to Post-op) (Map3k5): −3.002 | Fold Change (Pre- to Post-op) (Map3k12): 16.21 | Fold Change (Pre- to Post-op) (Marcksl1-ps4): 4.069 | Fold Change (Pre- to Post-op) (Mcfd2): 3.275 | Fold Change (Pre- to Post-op) (Mcpt1): 7.146 | Fold Change (Pre- to Post-op) (Mcpt2): 13.42 | Fold Change (Pre- to Post-op) (Mea1): 3.052 | Fold Change (Pre- to Post-op) (Med21): 5.251 | Fold Change (Pre- to Post-op) (Med31): 3.848 | Fold Change (Pre- to Post-op) (Medag): 4.262 | Fold Change (Pre- to Post-op) (Mei1): 3.993 | Fold Change (Pre- to Post-op) (Mettl23): 3.161 | Fold Change (Pre- to Post-op) (Mff): 3.004 | Fold Change (Pre- to Post-op) (Mgst1): 3.507 | Fold Change (Pre- to Post-op) (Mgst2): 5.061 | Fold Change (Pre- to Post-op) (Mgst3): 4.963 | Fold Change (Pre- to Post-op) (Mien1): 4.918 | Fold Change (Pre- to Post-op) (Minos1): 3.865 | Fold Change (Pre- to Post-op) (Mkks): 3.28 | Fold Change (Pre- to Post-op) (Mmp12): 5.474 | Fold Change (Pre- to Post-op) (Mmp23): 3.213 | Fold Change (Pre- to Post-op) (Mob4): 3.208 | Fold Change (Pre- to Post-op) (Mocs2): 3.43 | Fold Change (Pre- to Post-op) (Mpc1): 3.802 | Fold Change (Pre- to Post-op) (Mrp63): 3.647 | Fold Change (Pre- to Post-op) (Mrpl11): 4.084 | Fold Change (Pre- to Post-op) (Mrpl12): 4.084 | Fold Change (Pre- to Post-op) (Mrpl13): 3.376 | Fold Change (Pre- to Post-op) (Mrpl14): 5.005 | Fold Change (Pre- to Post-op) (Mrpl24): 3.479 | Fold Change (Pre- to Post-op) (Mrpl27): 4.04 | Fold Change (Pre- to Post-op) (Mrpl28): 3.389 | Fold Change (Pre- to Post-op) (Mrpl33): 5.69 | Fold Change (Pre- to Post-op) (Mrpl34): 3.007 | Fold Change (Pre- to Post-op) (Mrpl41): 3.954 | Fold Change (Pre- to Post-op) (Mrpl46): 3.56 | Fold Change (Pre- to Post-op) (Mrpl54): 5.196 | Fold Change (Pre- to Post-op) (Mrps16): 3.74 | Fold Change (Pre- to Post-op) (Mrps18c): 3.662 | Fold Change (Pre- to Post-op) (Mrps23): 3.078 | Fold Change (Pre- to Post-op) (Mrps24): 3.389 | Fold Change (Pre- to Post-op) (Mrps28): 3.249 | Fold Change (Pre- to Post-op) (Mrps33): 4.516 | Fold Change (Pre- to Post-op) (Mrps36): 3.539 | Fold Change (Pre- to Post-op) (Mterfd3): 3.55 | Fold Change (Pre- to Post-op) (Mtfr1): 3.153 | Fold Change (Pre- to Post-op) (Mvd): 4.11 | Fold Change (Pre- to Post-op) (Mvk): 4.061 | Fold Change (Pre- to Post-op) (Mycbpap): 3.709 | Fold Change (Pre- to Post-op) (Myeov2): 5.372 | Fold Change (Pre- to Post-op) (Myh10): −3.009 | Fold Change (Pre- to Post-op) (Myl4): 3.522 | Fold Change (Pre- to Post-op) (Myl6): 3.193 | Fold Change (Pre- to Post-op) (Myl7): 3.733 | Fold Change (Pre- to Post-op) (Mzb1): 3.192 | Fold Change (Pre- to Post-op) (Mzt1): 3.149 | Fold Change (Pre- to Post-op) (Nat2): 3.508 | Fold Change (Pre- to Post-op) (Nat8): 3.352 | Fold Change (Pre- to Post-op) (Ncoa3): −3.006 | Fold Change (Pre- to Post-op) (Ndufa1): 3.64 | Fold Change (Pre- to Post-op) (Ndufa2): 3.818 | Fold Change (Pre- to Post-op) (Ndufa4): 4.529 | Fold Change (Pre- to Post-op) (Ndufa5): 3.233 | Fold Change (Pre- to Post-op) (Ndufa6): 3.05 | Fold Change (Pre- to Post-op) (Ndufa11): 3.515 | Fold Change (Pre- to Post-op) (Ndufab1): 3.404 | Fold Change (Pre- to Post-op) (Ndufaf2): 3.197 | Fold Change (Pre- to Post-op) (Ndufaf6): 3.393 | Fold Change (Pre- to Post-op) (Ndufb2): 5.525 | Fold Change (Pre- to Post-op) (Ndufb3): 3.563 | Fold Change (Pre- to Post-op) (Ndufb4): 5.083 | Fold Change (Pre- to Post-op) (Ndufb6): 5.037 | Fold Change (Pre- to Post-op) (Ndufb8): 4.7 | Fold Change (Pre- to Post-op) (Ndufb9): 4.496 | Fold Change (Pre- to Post-op) (Ndufb10): 3.019 | Fold Change (Pre- to Post-op) (Ndufc1): 3.112 | Fold Change (Pre- to Post-op) (Ndufs4): 3.807 | Fold Change (Pre- to Post-op) (Ndufs5): 3.915 | Fold Change (Pre- to Post-op) (Ndufs8): 3.089 | Fold Change (Pre- to Post-op) (Ndufv2): 4.047 | Fold Change (Pre- to Post-op) (Nhp2): 3.093 | Fold Change (Pre- to Post-op) (Nkain4): 7.288 | Fold Change (Pre- to Post-op) (Nme2): 4.067 | Fold Change (Pre- to Post-op) (Nme3): 3.018 | Fold Change (Pre- to Post-op) (Nqo1): 5.83 | Fold Change (Pre- to Post-op) (Nr1h3): 3.296 | Fold Change (Pre- to Post-op) (Nr1i3): 3.328 | Fold Change (Pre- to Post-op) (Nt5c): 3.363 | Fold Change (Pre- to Post-op) (Nubp1): 3.093 | Fold Change (Pre- to Post-op) (Nudcd2): 3.394 | Fold Change (Pre- to Post-op) (Nudt5): 4.278 | Fold Change (Pre- to Post-op) (Nudt7): 4.072 | Fold Change (Pre- to Post-op) (Nudt8): 3.63 | Fold Change (Pre- to Post-op) (Nudt14): 4.061 | Fold Change (Pre- to Post-op) (Oas1c): 3.761 | Fold Change (Pre- to Post-op) (Ociad2): 3.98 | Fold Change (Pre- to Post-op) (Oxld1): 3.743
